# Source: the supplement of paper PMC10032668
# The chains behind the UniProt entries cited, without tags or fusion partners.
# CNOT1, A5YKK6, UniProt A5YKK6, whole entry: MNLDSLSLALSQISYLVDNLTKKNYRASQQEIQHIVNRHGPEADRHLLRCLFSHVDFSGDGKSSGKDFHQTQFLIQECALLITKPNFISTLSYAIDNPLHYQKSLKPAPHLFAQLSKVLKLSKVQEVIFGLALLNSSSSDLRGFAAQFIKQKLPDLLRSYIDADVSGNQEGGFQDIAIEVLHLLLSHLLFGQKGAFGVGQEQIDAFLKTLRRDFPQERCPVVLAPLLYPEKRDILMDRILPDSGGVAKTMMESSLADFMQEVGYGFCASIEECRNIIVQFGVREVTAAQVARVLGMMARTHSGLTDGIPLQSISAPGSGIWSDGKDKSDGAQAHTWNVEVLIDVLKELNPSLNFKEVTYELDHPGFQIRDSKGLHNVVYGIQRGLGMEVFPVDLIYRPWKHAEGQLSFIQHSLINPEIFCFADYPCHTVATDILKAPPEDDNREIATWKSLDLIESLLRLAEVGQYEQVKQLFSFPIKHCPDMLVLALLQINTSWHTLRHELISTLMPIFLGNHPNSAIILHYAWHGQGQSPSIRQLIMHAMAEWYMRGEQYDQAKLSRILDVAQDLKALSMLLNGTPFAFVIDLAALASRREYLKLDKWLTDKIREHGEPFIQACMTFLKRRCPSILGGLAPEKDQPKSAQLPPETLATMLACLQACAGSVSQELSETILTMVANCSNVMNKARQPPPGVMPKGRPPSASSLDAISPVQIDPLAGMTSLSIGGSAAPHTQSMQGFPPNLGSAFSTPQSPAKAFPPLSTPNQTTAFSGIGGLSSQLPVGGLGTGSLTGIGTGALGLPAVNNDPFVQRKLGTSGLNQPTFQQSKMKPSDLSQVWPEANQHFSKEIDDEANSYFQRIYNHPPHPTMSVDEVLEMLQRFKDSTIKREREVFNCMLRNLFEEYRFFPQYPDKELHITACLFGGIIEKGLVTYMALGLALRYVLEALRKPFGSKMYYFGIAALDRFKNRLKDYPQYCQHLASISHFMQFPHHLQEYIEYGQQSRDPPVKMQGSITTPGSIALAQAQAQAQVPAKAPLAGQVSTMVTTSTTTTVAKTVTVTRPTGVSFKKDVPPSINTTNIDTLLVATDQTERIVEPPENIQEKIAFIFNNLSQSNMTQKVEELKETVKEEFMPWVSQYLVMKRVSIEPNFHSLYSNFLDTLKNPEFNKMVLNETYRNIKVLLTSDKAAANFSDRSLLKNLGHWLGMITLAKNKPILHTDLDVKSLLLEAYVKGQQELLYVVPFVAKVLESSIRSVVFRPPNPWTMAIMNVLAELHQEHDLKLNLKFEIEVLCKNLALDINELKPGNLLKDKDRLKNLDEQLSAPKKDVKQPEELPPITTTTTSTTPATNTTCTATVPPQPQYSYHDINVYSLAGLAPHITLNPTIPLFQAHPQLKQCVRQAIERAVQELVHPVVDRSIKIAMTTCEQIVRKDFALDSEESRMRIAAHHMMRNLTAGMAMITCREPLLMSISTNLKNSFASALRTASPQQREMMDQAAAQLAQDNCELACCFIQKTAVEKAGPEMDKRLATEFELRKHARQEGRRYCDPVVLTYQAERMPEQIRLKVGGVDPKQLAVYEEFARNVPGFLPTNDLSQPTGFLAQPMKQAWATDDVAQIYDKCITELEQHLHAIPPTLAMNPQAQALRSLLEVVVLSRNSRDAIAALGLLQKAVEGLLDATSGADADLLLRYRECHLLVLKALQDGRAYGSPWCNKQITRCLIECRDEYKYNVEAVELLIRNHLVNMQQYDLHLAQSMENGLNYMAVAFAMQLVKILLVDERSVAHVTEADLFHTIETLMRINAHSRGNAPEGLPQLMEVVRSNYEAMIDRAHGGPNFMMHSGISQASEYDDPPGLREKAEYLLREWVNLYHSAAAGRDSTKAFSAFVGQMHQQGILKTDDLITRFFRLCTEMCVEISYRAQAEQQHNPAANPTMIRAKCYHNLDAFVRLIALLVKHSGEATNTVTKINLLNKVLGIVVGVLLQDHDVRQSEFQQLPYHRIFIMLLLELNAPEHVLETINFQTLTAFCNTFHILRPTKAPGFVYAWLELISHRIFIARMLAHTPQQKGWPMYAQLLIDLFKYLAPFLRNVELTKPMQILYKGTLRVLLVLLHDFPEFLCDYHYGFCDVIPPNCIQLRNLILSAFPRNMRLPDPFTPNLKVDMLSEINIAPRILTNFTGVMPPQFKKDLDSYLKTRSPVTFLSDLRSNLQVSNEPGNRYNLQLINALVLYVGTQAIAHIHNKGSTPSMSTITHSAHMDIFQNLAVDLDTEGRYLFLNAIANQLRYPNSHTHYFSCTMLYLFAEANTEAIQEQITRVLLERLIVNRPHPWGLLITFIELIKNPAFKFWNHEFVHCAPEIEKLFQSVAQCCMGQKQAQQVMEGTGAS
# PDHB, P11177, UniProt P11177, whole entry: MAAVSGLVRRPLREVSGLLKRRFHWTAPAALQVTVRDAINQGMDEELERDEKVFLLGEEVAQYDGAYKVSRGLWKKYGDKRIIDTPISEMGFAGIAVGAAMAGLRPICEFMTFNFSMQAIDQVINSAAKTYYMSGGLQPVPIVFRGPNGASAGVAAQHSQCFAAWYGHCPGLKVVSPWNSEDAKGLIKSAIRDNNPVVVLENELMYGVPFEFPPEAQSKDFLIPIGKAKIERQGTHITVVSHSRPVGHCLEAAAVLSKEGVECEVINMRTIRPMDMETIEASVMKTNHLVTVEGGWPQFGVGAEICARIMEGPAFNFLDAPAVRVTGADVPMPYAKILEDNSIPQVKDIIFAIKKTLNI
# TPX2, Q9ULW0, UniProt Q9ULW0, whole entry: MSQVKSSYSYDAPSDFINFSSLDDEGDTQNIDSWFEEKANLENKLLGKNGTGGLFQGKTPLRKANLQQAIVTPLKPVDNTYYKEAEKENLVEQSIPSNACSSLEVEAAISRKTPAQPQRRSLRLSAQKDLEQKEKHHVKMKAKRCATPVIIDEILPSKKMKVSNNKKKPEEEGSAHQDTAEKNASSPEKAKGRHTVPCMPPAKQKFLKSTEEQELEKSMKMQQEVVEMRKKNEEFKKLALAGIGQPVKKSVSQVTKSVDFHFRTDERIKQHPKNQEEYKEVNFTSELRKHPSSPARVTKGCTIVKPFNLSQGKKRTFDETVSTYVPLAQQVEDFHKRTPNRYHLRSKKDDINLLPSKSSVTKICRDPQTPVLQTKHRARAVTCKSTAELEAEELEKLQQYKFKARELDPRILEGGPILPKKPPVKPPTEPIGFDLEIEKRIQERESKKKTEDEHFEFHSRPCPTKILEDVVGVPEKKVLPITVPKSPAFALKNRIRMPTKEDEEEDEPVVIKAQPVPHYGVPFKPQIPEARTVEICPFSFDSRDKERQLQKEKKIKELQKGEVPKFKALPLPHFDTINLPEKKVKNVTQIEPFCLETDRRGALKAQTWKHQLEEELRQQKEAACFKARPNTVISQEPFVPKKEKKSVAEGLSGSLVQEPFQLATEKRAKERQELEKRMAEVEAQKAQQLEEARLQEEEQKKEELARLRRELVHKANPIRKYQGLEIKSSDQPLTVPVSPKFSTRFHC
# CKS2, P33552, UniProt P33552, whole entry: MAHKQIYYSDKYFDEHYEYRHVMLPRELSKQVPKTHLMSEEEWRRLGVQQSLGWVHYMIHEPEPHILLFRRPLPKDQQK
# CUL4B, Q13620, UniProt Q13620, whole entry: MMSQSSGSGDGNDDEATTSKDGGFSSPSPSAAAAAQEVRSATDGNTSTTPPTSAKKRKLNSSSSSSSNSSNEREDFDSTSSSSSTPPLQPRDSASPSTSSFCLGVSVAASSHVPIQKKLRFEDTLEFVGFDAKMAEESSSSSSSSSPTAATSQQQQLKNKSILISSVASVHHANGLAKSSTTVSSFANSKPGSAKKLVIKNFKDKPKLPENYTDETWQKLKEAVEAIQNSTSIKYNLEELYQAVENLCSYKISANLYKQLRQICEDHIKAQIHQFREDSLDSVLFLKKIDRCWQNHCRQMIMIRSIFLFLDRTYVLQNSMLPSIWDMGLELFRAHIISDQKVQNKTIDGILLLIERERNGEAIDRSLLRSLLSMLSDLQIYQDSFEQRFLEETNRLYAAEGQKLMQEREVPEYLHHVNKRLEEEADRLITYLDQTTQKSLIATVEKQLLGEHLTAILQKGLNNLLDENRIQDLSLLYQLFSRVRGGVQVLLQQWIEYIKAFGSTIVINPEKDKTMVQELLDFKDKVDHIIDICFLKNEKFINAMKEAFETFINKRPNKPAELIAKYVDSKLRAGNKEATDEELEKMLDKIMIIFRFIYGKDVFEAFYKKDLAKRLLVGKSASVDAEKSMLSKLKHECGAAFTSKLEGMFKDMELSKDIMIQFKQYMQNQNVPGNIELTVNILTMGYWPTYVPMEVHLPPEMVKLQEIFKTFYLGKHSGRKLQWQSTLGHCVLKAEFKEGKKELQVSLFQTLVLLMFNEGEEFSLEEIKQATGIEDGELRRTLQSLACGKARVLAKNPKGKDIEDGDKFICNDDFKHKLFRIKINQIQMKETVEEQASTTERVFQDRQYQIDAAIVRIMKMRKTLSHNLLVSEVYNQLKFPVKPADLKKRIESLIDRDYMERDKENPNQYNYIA
# C3, P01024, UniProt P01024, whole entry: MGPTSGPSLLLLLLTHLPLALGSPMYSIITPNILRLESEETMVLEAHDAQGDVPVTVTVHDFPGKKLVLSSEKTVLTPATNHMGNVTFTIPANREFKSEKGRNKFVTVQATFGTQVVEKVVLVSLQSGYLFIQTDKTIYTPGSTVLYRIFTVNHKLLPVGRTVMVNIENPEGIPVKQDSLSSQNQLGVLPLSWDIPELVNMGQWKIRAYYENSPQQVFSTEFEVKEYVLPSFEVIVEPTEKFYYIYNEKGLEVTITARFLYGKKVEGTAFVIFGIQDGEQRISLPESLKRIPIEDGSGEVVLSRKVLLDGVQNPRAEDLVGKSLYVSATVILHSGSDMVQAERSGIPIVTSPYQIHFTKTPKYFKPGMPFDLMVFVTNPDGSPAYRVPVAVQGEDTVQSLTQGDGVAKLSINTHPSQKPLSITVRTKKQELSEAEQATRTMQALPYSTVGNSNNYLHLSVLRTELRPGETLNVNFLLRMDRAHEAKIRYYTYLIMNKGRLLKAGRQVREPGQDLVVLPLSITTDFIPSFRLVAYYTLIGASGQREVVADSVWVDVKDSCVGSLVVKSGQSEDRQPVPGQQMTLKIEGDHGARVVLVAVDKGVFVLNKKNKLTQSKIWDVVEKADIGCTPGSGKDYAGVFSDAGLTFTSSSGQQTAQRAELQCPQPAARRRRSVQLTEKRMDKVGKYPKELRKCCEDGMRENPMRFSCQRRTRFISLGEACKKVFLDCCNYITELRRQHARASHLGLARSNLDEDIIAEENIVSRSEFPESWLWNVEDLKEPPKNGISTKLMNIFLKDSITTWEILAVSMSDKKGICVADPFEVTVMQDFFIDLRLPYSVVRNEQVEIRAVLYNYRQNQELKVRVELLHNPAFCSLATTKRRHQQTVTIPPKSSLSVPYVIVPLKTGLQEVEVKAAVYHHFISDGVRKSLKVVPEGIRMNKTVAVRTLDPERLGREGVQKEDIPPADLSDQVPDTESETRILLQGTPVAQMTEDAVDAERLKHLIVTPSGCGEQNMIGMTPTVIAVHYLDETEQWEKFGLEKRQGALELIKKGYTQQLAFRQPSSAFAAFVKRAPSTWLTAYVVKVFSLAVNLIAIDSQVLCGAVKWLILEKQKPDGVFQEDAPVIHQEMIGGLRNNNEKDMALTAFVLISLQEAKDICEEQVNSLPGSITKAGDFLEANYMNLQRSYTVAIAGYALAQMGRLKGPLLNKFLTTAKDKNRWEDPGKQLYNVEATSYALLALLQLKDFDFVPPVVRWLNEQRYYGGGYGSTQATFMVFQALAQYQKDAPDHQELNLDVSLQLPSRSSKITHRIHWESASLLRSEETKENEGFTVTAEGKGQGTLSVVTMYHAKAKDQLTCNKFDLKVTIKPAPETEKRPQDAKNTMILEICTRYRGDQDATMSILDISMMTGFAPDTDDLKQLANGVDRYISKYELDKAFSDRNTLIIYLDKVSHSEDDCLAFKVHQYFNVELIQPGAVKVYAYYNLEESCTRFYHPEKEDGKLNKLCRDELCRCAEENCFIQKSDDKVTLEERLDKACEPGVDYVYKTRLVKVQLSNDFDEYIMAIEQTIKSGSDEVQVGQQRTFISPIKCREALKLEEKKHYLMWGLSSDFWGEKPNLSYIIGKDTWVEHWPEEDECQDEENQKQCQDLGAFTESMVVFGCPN
# FABP5, Q01469, UniProt Q01469, whole entry: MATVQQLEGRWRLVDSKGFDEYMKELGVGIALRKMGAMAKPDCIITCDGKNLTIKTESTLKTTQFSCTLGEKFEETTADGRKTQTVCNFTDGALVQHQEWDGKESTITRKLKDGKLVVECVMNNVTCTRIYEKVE
# TRAPPC2L, Q9UL33, UniProt Q9UL33, whole entry: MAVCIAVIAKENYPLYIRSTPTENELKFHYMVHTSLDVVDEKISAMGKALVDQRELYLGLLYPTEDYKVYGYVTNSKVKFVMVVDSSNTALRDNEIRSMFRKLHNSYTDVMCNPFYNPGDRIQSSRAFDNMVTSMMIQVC
# NDUFB7, P17568, UniProt P17568, whole entry: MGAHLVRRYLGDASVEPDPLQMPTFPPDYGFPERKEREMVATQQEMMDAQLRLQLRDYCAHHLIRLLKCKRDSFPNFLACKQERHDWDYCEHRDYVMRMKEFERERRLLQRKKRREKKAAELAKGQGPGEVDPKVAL
# The list shows a part of the results. The list holds hits alone, and they repeat only in part.
# Assays:
# Assay in all cases: PRISMA enrichment of interactor (LFQ) in peptide spot vs all other peptide spots (log2 fold change); higher = stronger / more specific binding of the interactor to the peptide
# [1] = target: BCOR, Q6W2J9
# Method: (§1)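 PRISMA: 15-aa overlapping tiles (offset 8 aa) of 60 microproteins, plus SOS1/GLUT1 control peptides, were spot-synthesized on cellulose membranes in triplicate. Membranes were incubated with benzonase-treated HEK293T lysate, and bound proteins were identified by LC-MS/MS with LFQ. Enrichment is the log2 fold change of each protein in one spot versus all other spots. Only interactors passing the significance cutoff are listed.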
# [2] = target: BRIX1, Q8TDN6
# Method: as §1
# [3] = target: CNOT1, A5YKK6
# Method: as §1
# [4] = target: DDX5, P17844
# Method: as §1
# [5] = target: DNAJA3, Q96EY1
# Method: as §1
# [6] = target: GNPDA1, P46926
# Method: as §1
# [7] = target: HNRNPK, P61978
# Method: as §1
# [8] = target: LRRC47, Q8N1G4
# Method: as §1
# [9] = target: LSG1, Q9H089
# Method: as §1
# [10] = target: MRPL11, Q9Y3B7
# Method: as §1
# [11] = target: MRPL21, Q7Z2W9
# Method: as §1
# [12] = target: MUC19, Q7Z5P9
# Method: as §1
# [13] = target: PDHB, P11177
# Method: as §1
# [14] = target: BASP1, P80723
# Method: as §1
# [15] = target: BMS1, Q14692
# Method: as §1
# [16] = target: CSNK2A2, P19784
# Method: as §1
# [17] = target: DDX27, Q96GQ7
# Method: as §1
# [18] = target: DRG2, P55039
# Method: as §1
# [19] = target: EHD1, Q9H4M9
# Method: as §1
# [20] = target: MARCKSL1, P49006
# Method: as §1
# [21] = target: PDCL3, Q9H2J4
# Method: as §1
# [22] = target: PLAA, Q9Y263
# Method: as §1
# [23] = target: RNF213, Q63HN8
# Method: as §1
# [24] = target: SEPTIN9, Q9UHD8
# Method: as §1
# [25] = target: SF3B2, Q13435
# Method: as §1
# [26] = target: SRRT, Q9BXP5
# Method: as §1
# [27] = target: TOMM40, O96008
# Method: as §1
# [28] = target: TPX2, Q9ULW0
# Method: as §1
# [29] = target: XPO7, Q9UIA9
# Method: as §1
# [30] = target: CKS2, P33552
# Method: as §1
# [31] = target: CST4, P01036
# Method: as §1
# [32] = target: CUL4B, Q13620
# Method: as §1
# [33] = target: DBR1, Q9UK59
# Method: as §1
# [34] = target: HDGF, P51858
# Method: as §1
# [35] = target: MAGED2, Q9UNF1
# Method: as §1
# [36] = target: MXRA7, P84157
# Method: as §1
# [37] = target: PNISR, Q8TF01
# Method: as §1
# [38] = target: RRP15, Q9Y3B9
# Method: as §1
# [39] = target: SART1, O43290
# Method: as §1
# [40] = target: BAIAP2, Q9UQB8
# Method: as §1
# [41] = target: GTF3C5, Q9Y5Q8
# Method: as §1
# [42] = target: LMF2, Q9BU23
# Method: as §1
# [43] = target: RNPS1, Q15287
# Method: as §1
# [44] = target: BAZ1B, Q9UIG0
# Method: as §1
# [45] = target: FAM32A, Q9Y421
# Method: as §1
# [46] = target: HSD17B12, Q53GQ0
# Method: as §1
# [47] = target: ITPA, Q9BY32
# Method: as §1
# [48] = target: MRPS23, Q9Y3D9
# Method: as §1
# [49] = target: SRI, P30626
# Method: as §1
# [50] = target: C19orf53, Q9UNZ5
# Method: as §1
# [51] = target: C3, P01024
# Method: as §1
# [52] = target: CEP290, O15078
# Method: as §1
# [53] = target: CHD1, O14646
# Method: as §1
# [54] = target: COL4A3BP, Q9Y5P4
# Method: as §1
# [55] = target: EARS2, Q5JPH6
# Method: as §1
# [56] = target: EHD4, Q9H223
# Method: as §1
# [57] = target: EMG1, Q92979
# Method: as §1
# [58] = target: FABP5, Q01469
# Method: as §1
# [59] = target: HP, P00738
# Method: as §1
# [60] = target: IDH3B, O43837
# Method: as §1
# [61] = target: MRPL41, Q8IXM3
# Method: as §1
# [62] = target: MRPS15, P82914
# Method: as §1
# [63] = target: MRPS5, P82675
# Method: as §1
# [64] = target: NUP93, Q8N1F7
# Method: as §1
# [65] = target: PRDX2, P32119
# Method: as §1
# [66] = target: PRDX3, P30048
# Method: as §1
# [67] = target: SERF2, P84101
# Method: as §1
# [68] = target: SF3B4, Q15427
# Method: as §1
# [69] = target: TACO1, Q9BSH4
# Method: as §1
# [70] = target: TEX10, Q9NXF1
# Method: as §1
# [71] = target: TFB2M, Q9H5Q4
# Method: as §1
# [72] = target: TRAPPC2L, Q9UL33
# Method: as §1
# [73] = target: BAZ1A, Q9NRL2
# Method: as §1
# [74] = target: DDX49, Q9Y6V7
# Method: as §1
# [75] = target: NDUFB7, P17568
# Method: as §1
# [76] = target: RBX1, P62877
# Method: as §1
# [77] = target: SPCS2, Q15005
# Method: as §1
binder,measurement,setting,value
RLREKLTLLHYDPVV,PRISMA enrichment of interactor (log2),[1],4.89
same,PRISMA enrichment of interactor (log2),[2],5.03
same,PRISMA enrichment of interactor (log2),[3],4.92
same,PRISMA enrichment of interactor (log2),[4],4.53
same,PRISMA enrichment of interactor (log2),[5],4.91
same,PRISMA enrichment of interactor (log2),[6],5.63
same,PRISMA enrichment of interactor (log2),[7],4.53
same,PRISMA enrichment of interactor (log2),[8],3.9
same,PRISMA enrichment of interactor (log2),[9],5.81
same,PRISMA enrichment of interactor (log2),[10],8.75
same,PRISMA enrichment of interactor (log2),[11],5.83
same,PRISMA enrichment of interactor (log2),[12],7.88
same,PRISMA enrichment of interactor (log2),[13],4.4
LCNHMEVCLILKLKK [RP11-620J15.3],PRISMA enrichment of interactor (log2),[14],4.4
same,PRISMA enrichment of interactor (log2),[15],5.61
same,PRISMA enrichment of interactor (log2),[16],5.7
same,PRISMA enrichment of interactor (log2),[17],5.28
same,PRISMA enrichment of interactor (log2),[18],4.25
same,PRISMA enrichment of interactor (log2),[19],5.54
same,PRISMA enrichment of interactor (log2),[20],4.47
same,PRISMA enrichment of interactor (log2),[21],8.57
same,PRISMA enrichment of interactor (log2),[22],8.31
same,PRISMA enrichment of interactor (log2),[23],8.77
same,PRISMA enrichment of interactor (log2),[24],4.34
same,PRISMA enrichment of interactor (log2),[25],6.35
same,PRISMA enrichment of interactor (log2),[26],6.19
same,PRISMA enrichment of interactor (log2),[27],4.99
same,PRISMA enrichment of interactor (log2),[28],4.87
same,PRISMA enrichment of interactor (log2),[29],4.66
GETHTDRGSGMTGKG [LINC00881_2],PRISMA enrichment of interactor (log2),[14],4.57
same,PRISMA enrichment of interactor (log2),[30],5.04
same,PRISMA enrichment of interactor (log2),[31],5.38
same,PRISMA enrichment of interactor (log2),[32],4.41
same,PRISMA enrichment of interactor (log2),[33],5.44
same,PRISMA enrichment of interactor (log2),[34],5.05
same,PRISMA enrichment of interactor (log2),[35],4.8
same,PRISMA enrichment of interactor (log2),[36],5.71
same,PRISMA enrichment of interactor (log2),[37],4.22
same,PRISMA enrichment of interactor (log2),[38],4.71
same,PRISMA enrichment of interactor (log2),[39],4.99
MFLSAVFFAKSKSKN,PRISMA enrichment of interactor (log2),[40],5.77
same,PRISMA enrichment of interactor (log2),[41],4.34
same,PRISMA enrichment of interactor (log2),[42],4.89
same,PRISMA enrichment of interactor (log2),[21],8.5
same,PRISMA enrichment of interactor (log2),[43],6.37
MLAEIHPKAGLQSLQ [CRNDE],PRISMA enrichment of interactor (log2),[44],5.1
same,PRISMA enrichment of interactor (log2),[45],5.34
same,PRISMA enrichment of interactor (log2),[46],5.57
same,PRISMA enrichment of interactor (log2),[47],7.21
same,PRISMA enrichment of interactor (log2),[48],4.06
same,PRISMA enrichment of interactor (log2),[49],4.83
AVAECLMDSYSLDVH [PVT1],PRISMA enrichment of interactor (log2),[44],5.53
same,PRISMA enrichment of interactor (log2),[50],7.95
same,PRISMA enrichment of interactor (log2),[51],5.39
same,PRISMA enrichment of interactor (log2),[52],6.3
same,PRISMA enrichment of interactor (log2),[53],5.31
same,PRISMA enrichment of interactor (log2),[54],5.27
same,PRISMA enrichment of interactor (log2),[55],7.62
same,PRISMA enrichment of interactor (log2),[56],6.1
same,PRISMA enrichment of interactor (log2),[57],5.72
same,PRISMA enrichment of interactor (log2),[58],5.58
same,PRISMA enrichment of interactor (log2),[59],5.31
same,PRISMA enrichment of interactor (log2),[60],6.79
same,PRISMA enrichment of interactor (log2),[61],5.3
same,PRISMA enrichment of interactor (log2),[62],5.92
same,PRISMA enrichment of interactor (log2),[63],10.9
same,PRISMA enrichment of interactor (log2),[64],5.58
same,PRISMA enrichment of interactor (log2),[65],7.12
same,PRISMA enrichment of interactor (log2),[66],5.08
same,PRISMA enrichment of interactor (log2),[67],5.81
same,PRISMA enrichment of interactor (log2),[68],4.4
same,PRISMA enrichment of interactor (log2),[69],5.79
same,PRISMA enrichment of interactor (log2),[70],6.65
same,PRISMA enrichment of interactor (log2),[71],4.92
same,PRISMA enrichment of interactor (log2),[72],4.47
TTRGEACGWPTASGW [THAP7],PRISMA enrichment of interactor (log2),[73],6.68
same,PRISMA enrichment of interactor (log2),[74],5.22
same,PRISMA enrichment of interactor (log2),[75],7.45
same,PRISMA enrichment of interactor (log2),[76],5.74
same,PRISMA enrichment of interactor (log2),[77],5.31

# Quoted from the entries so far (6 entries):
binder,measurement,setting,value
RLREKLTLLHYDPVV,PRISMA enrichment of interactor (log2),[11],5.83
same,PRISMA enrichment of interactor (log2),[12],7.88
same,PRISMA enrichment of interactor (log2),[13],4.4
LCNHMEVCLILKLKK [RP11-620J15.3],PRISMA enrichment of interactor (log2),[14],4.4
same,PRISMA enrichment of interactor (log2),[15],5.61
same,PRISMA enrichment of interactor (log2),[16],5.7
